Laboratory results reported in PubChem BioAssay AID687031 (Broad Institute, 2013).
About 50 (4%) of roughly 1,400 compounds were called active.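 The calls were made as follows: active = fitted curve reaches 30% CPE protection at or below the top valid dose, with every test run called active; inconclusive = test runs disagree, some active and some not; inactive = every test run inactive, including effects in the wrong direction.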 The list shows a part of the results. Potency and affinity values are given separately.

Assay: Dengue virus 2 cytopathic effect protection, dose response, BHK-21 cells, ATP luminescence, cherry-pick (AID 687031);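 also: 0% = infected DMSO wells and 100% = uninfected cell wells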
Conditions: BHK-21 DENV2 CPE protection, 5 d; at 19.5 µM (top of the series) unless noted

CPE protection (higher = active), inactive:
CCc1ccc(NC(=O)C(C)OC(=O)Cn2[nH]c(=O)c3ccccc3c2=O)cc1 (stereo not drawn) 28.8%
CCCNC(=O)N1CC2(C1)CN(Cc1cccc(F)c1)[C@@H](CO)c1[nH]c3cc(OC)ccc3c12 0.396%
C[C@H](NC(=O)[C@H]1[C@H](CO)[C@H]2Cn3c(cccc3=O)[C@@H]1N2Cc1cccnc1)c1ccccc1 2.21% [at 21 µM]
CCCCCCCNC(=O)C1(CC2CC(c3ccccc3)=NO2)CCN(C(=O)c2ccccc2)CC1 (stereo not drawn) -3.88% [at 10 µM]
CCCCN1C(Nc2ccccc2)=NC[C@@H]1Cc1ccccc1 9.41%
CCCN1C[C@H](C)[C@H](OC)CN(C)C(=O)c2cc(NS(=O)(=O)c3cn(C)cn3)ccc2OC[C@@H]1C -5.04%
CC(C)C[C@@H](COc1ccccc1)N1CCN(CCc2ccccc2)CCC1=O 24.5%
COc1cccc(CNC(=O)[C@H]2CCCN2C(=O)C2CCCN2C(=O)c2ccc(OC)c(F)c2)c1 (stereo partly drawn) -11.5%
CCN(CC)c1ccc(/C=N/N2C(=O)c3ccccc3C2=O)c(O)c1 -7.63%
CCC(=O)Nc1ccc2c(c1)C(=O)N(C)[C@@H]1CC[C@H](CC(=O)N[C@@H](C)c3ccccc3)O[C@@H]1CO2 30.3%
CCc1nc2nc(C)c(NS(=O)(=O)c3ccc(Br)s3)c(=O)n2[nH]1 -4.69%
O=C(COc1ccccc1)Nc1ccc(N2CCN(C(=O)c3cccs3)CC2)cc1 6.36%
C[C@H](CO)N1C[C@H](C)[C@@H](CN(C)C(=O)Nc2ccc(C(F)(F)F)cc2)OCCCC[C@H](C)Oc2ccc(NS(=O)(=O)c3cccs3)cc2C1=O 3.94%
Cc1ccc(C)c(C(Nc2ccccc2)c2ccc3ccc(C)nc3c2O)c1 (stereo not drawn) -13.2%
O=C(NCCS(=O)(=O)NCc1ccc(F)cc1)c1ccc2c(c1)OCO2 0.287%
CN1C(C)(C)c2ccccc2OS1(=O)=O 22%
Cc1cc2oc(=O)cc(Cn3ccnc3)c2cc1Cl 7.63%
O=S1(=O)CCOCCCN1Cc1ccccc1Br 12.2%
O=C(c1cnccn1)N1CC[C@@H]2[C@@H](CO)Nc3ccc(-c4ccccc4F)cc3[C@@H]21 -9.44% [at 21 µM]
CSc1ccccc1NC(=O)c1cc2c(=O)n3ccccc3nc2s1 -13.1%
Cc1ccc([C@H]2C[C@@H](n3cc(-c4ccc(F)cc4)nn3)[C@H](O)CN2C(=O)c2cccs2)cc1 -9.7%
CCN(c1ccccc1)S(=O)(=O)c1ccc(OC)c(NC(=O)C2CCC2)c1 -14.6%
COc1ccc(NC(=O)Nc2cccc3c2O[C@H](CN(C)C(=O)Nc2ccc(OC)cc2)[C@@H](C)CN([C@@H](C)CO)C3=O)cc1 -19.9%
COc1cc(S(=O)(=O)NCc2ccncc2)c(OC)cc1Br -11.7%
CCN1CCC(N2CCN(c3ccc(F)cc3)CC2)CC1 16.7%
C[C@@H]1CCCCO[C@@H](CN(C)S(C)(=O)=O)[C@@H](C)CN([C@H](C)CO)C(=O)c2cc(NC(=O)c3ccccc3)ccc2O1 2.99%
CN(C(=O)COC(=O)c1ccc(S(=O)(=O)N2CCOCC2)cc1)c1ccccc1 11.8%
CCc1ccc(NC(=O)COc2ccc3c(c2)OCO3)cc1 35%
Cc1ccccc1-c1ccc(C2[C@@H]3CN(C(=O)Cc4ccncc4)C[C@H]2N3)cc1 (stereo partly drawn) -5.08% [at 21 µM]
CC1CCOC(c2coc3ccccc3c2=O)O1 (stereo not drawn) 9.34%
O=C(NC1CCCC1)C(C1CC1)n1c(C2CCCC2)nc2ccccc21 (stereo not drawn) -5.67%
Cc1cn([C@H]2C[C@H](O)[C@@H](CNCc3ccc4ncccc4c3)O2)c(=O)[nH]c1=O 0.612%
Cc1ccccc1OCCC(=O)OCC(=O)NCCc1ccc(S(N)(=O)=O)cc1 2.61%
CCN1CCN(S(=O)(=O)c2ccc(Cl)c(C(=O)N(C)CCOc3ccc(Cl)cc3)c2)CC1 -11.8%
Cc1ccc(S(=O)(=O)N(C)CC(=O)Oc2ccc(-c3nnco3)cc2)cc1 -21.8% [at 10 µM]
Cc1cc(C)c2[nH]c(C(=O)Nc3ccc4c(c3)OCO4)cc2c1 3.28%
COc1ccc(C(=S)N2CCOCC2)cc1OC(=O)c1ccccc1 3.84%
C[C@H](CO)N1C[C@H](C)[C@@H](CN(C)C(=O)C2CC2)Oc2cc(C#Cc3ccccc3)ccc2S1(=O)=O -7.48%
O=C(Cc1cccc(C(F)(F)F)c1)Nc1ccc(S(=O)(=O)N2CCCC2)cc1 -1.95%
O=C(Cc1cccnc1)N[C@H]1CC[C@@H](CCn2cc(Cc3ccccc3)nn2)O[C@H]1CO -2.15%
C[C@H](CO)N1C[C@H](C)[C@@H](CN(C)S(=O)(=O)c2cn(C)cn2)Oc2ccc(NC(=O)Nc3cccc4ccccc34)cc2CC1=O -3.17% [at 21 µM]
C[C@@H]1CN([C@H](C)CO)C(=O)c2cc(NC(=O)Nc3ccc(C(F)(F)F)cc3)ccc2O[C@@H]1CN(C)Cc1ccccc1 -0.123%
Cc1ccc(CNC(=O)[C@H](C)N2C(=O)N3CCc4c([nH]c5ccccc45)[C@@]3(C)C2=O)cc1 2.38%
COc1ccccc1CN1[C@H](CO)[C@H]2c3ccccc3N(C(=O)c3ccncc3)C[C@H]21 1.87% [at 21 µM]
C[C@H]1CN([C@@H](C)CO)C(=O)c2ccccc2-c2ccccc2CO[C@H]1CN(C)S(=O)(=O)c1cccc(C#N)c1 0.282%
Nc1nc2c(ncn2[C@@H]2O[C@H](CNCc3ccc(F)c(N4CCOCC4)c3)[C@@H](O)[C@H]2O)c(=O)[nH]1 -16%
Nc1cccc(O)c1 19.3% [at 10 µM]
CCCNC(=O)N1[C@H](CO)[C@H](c2ccccc2)[C@@H]1CNC(=O)c1ccc(F)cc1 3.14%
